Experimental data taken from publication PMC5382266 (Nature Communications, 2017).
Results are given in words; binding and its absence hold for the method and conditions named. Some entries that bind do so weakly or less than the wild type. For some of these results: Tags and fused reporters may be left off the sequences shown.

Sequences of proteins named here, by UniProt entry; tags and fusion partners are left off. A change or cut given only in a name is not applied to a line headed by its entry. A line that says so, or that is headed by a name, gives the form on record, which may keep a tag or linker.
biotinylated TSLP^R127A/R130S (Q969D9-1, form named): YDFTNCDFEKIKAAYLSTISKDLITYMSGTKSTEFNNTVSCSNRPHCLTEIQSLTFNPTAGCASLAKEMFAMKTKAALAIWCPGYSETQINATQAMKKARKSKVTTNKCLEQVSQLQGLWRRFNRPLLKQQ
TSLP-Arg149Ser (Q969D9-1, form named): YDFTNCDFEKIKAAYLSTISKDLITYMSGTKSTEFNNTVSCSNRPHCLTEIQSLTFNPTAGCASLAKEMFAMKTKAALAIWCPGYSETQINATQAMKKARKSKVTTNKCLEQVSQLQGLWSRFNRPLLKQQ
TSLP-Arg150Ser (Q969D9-1, form named): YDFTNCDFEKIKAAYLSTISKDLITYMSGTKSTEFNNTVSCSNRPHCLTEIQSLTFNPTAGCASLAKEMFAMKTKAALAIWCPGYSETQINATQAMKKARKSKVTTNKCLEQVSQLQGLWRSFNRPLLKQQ
TSLP-Arg153Ser (Q969D9-1, form named): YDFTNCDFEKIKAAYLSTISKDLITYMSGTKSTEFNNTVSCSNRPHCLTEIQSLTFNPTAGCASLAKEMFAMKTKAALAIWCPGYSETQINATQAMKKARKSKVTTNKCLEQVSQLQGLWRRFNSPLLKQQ
TSLP-Arg149Ser/Arg150Ser (Q969D9-1, form named): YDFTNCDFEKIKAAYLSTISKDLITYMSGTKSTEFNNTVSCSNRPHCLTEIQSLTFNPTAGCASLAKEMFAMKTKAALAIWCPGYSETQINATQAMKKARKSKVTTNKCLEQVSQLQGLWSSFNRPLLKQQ

What was measured:
[1] = molecular target: T1, full-length FLAG-tagged human TSLPR (human) (UniProt Q9HC73); assay: competitive TSLP-SEAP cell binding assay; TSLP-SEAP in conditioned medium (diluted 15-fold) on HEK293T cells expressing TSLPR, 2 h at 6 °C in FACS buffer; bound alkaline phosphatase activity read by chemiluminescence
T1 sequence: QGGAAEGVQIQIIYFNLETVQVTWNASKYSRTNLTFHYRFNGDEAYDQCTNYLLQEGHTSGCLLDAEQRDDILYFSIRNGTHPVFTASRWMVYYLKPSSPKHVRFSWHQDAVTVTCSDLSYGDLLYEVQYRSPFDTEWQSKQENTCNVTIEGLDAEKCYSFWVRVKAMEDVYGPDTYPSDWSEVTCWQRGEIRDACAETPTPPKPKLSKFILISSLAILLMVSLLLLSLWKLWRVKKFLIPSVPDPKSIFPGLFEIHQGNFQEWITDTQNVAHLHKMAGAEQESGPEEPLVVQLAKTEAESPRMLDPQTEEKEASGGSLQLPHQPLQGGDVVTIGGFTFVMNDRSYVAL

[2] = molecular target: biotinylated TSLP^R127A/R130S (human) (UniProt Q969D9); assay: BLI; data not shown; binding profile of TSLP-trap2 to TSLP, told as similar to that of TSLP-trap1; both purified
[3] = molecular target: T1, full-length FLAG-tagged human TSLPR (human); assay: competitive TSLP-SEAP cell binding assay; different concentrations of unlabelled wild type or mutant TSLP displace TSLP-SEAP from HEK293T cells expressing TSLPR, 2 h at 6 °C in FACS buffer; log inhibitor versus response fit
[4] = molecular target: biotinylated TSLP^R127A/R130S (human) (UniProt Q969D9); assay: BLI; biotinylated TSLP^R127A/R130S on streptavidin biosensors, analyte in solution; PBS with 0.01% BSA and 0.002% Tween 20, 25 °C, Octet RED96; 1:1 model; both purified

## TSLP-SEAP fusion protein (from UniProt Q969D9-1 29-159) (ligand)
[1]
  binding: binds

## TSLP-trap2 (from UniProt P16871-1 21-239; Q9HC73-1 23-231)
[2]
  binding: binds

## TSLP-Arg149Ser (from UniProt Q969D9-1 29-159) (ligand)
[3]
  binding: no binding

## TSLP-Arg150Ser (from UniProt Q969D9-1 29-159) (ligand)
[3]
  binding: no binding

## TSLP-Arg153Ser (from UniProt Q969D9-1 29-159) (ligand)
[3]
  binding: no binding

## TSLP-Arg149Ser/Arg150Ser (from UniProt Q969D9-1 29-159) (ligand)
[3]
  binding: no binding

B1: soluble IL-7Rα ectodomain (domain or fragment, human, UniProt P16871-1 21-239, looked up)
chain: ESGYAQNGDLEDAELDDYSFSCYSQLEVNGSQHSLTCAFEDPDVNITNLEFEICGALVEVKCLNFRKLQEIYFIETKKFLLIGKSNICVKVGEKSLTCKKIDLTTIVKPEAPFDLSVVYREGANDFVVTFNTSHLQKKYVKVLMHDVAYRQEKDENKWTHVNLSSTKLTLLQRKLQPAAMYEIKVRSIPDHYFKGFWSEWSPSYYFRTPEINNSSGEMD
notes: signal peptide in the construct; extracellular fragment of human IL-7Rα, NP_002176.2, residues 1-239; also called interleukin 7 receptor α-chain
[4]
  binding: no binding
